From publication PMC9048134 come the findings set out here.

Protein sequences, listed by entry. Tags and fused reporters are not part of them. Residues count along the entry.
UniProt O00168, residues 21-92: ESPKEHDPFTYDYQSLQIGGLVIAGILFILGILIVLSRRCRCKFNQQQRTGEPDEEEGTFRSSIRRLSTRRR

No constants are given. Whether binding was seen depends on the method and setting. In cells and extracts the contact can be indirect. Some binding calls cover weakened binding; strength is not graded here.

Assay [1] deals with human Na/K-ATPase α2 subunit fused to mCyRFP1 (donor) or mMaroon1 (acceptor) (human) (UniProt P50993). Kind of assay: FRET or BRET; fluorescence lifetime (FLIM and TCSPC point measurements) in live HEK293-AAV cells; donor mCyRFP1-α, acceptor PLM-mMaroon1, 1:5 donor:acceptor, unlabeled β1 co-expressed; in PBS; also with 10 μM ouabain (FRET not affected); competition with unlabeled competitor (1:4 donor:unlabeled, 1:1 donor:acceptor).

Assay [2] addresses human Na/K-ATPase α3 subunit fused to mCyRFP1 (donor) or mMaroon1 (acceptor) (human) (UniProt P13637). As to the kind of experiment: FRET or BRET; fluorescence lifetime imaging (FLIM) and TCSPC in live HEK293-AAV cells; mCyRFP1- and mMaroon1-labeled α isoforms in combinations; donor lifetime against donor alone. Background: BRET reads energy transfer from a luciferase to a nearby fluorophore.

The target of assay [3] is human Na/K-ATPase α2 subunit fused to mCyRFP1 (donor) or mMaroon1 (acceptor) (human) (UniProt P50993). The description is as above.

For the substance “unlabeled PLM (human phospholemman) (from UniProt O00168 21-92)”, the binding result in assay [1] is listed as “binds”.

On to “human Na/K-ATPase α3 subunit fused to mCyRFP1 (donor) or mMaroon1 (acceptor) (from UniProt P13637 1-1013) (other; other documents disagree on this pair)”, for which the binding entry in assay [2] was “binds”.

Consider “human Na/K-ATPase α2 subunit fused to mCyRFP1 (donor) or mMaroon1 (acceptor) (from UniProt P50993 1-1020)”, for which the binding entry in assay [3] is given as “binds”.

Consider “PLM-mMaroon1 (human phospholemman fused to the N-terminus of mMaroon1) (from UniProt O00168 21-92)”, for which the binding entry in assay [1] is reported as “binds”.

For “human Na/K-ATPase α3 subunit fused to mCyRFP1 (donor) or mMaroon1 (acceptor) (from UniProt P13637 1-1013)”, in assay [3], the binding entry is listed as “binds”.
